Measured values taken from publication PMC10216714, “NMR and Patch-Clamp Characterization of Yeast Mitochondrial Pyruvate Carrier Complexes” (Biomolecules, 2023).
Results are given in words; binding and its absence hold for the method and conditions named. Some results given as binding are weak or reduced against the parent protein; the word gives no strength. Sequences can lack the tags named with a protein.

Target: T1, MTSL-labelled Mpc1 monomer (MTSL on C87) (Saccharomyces cerevisiae), P53157
T1 chain: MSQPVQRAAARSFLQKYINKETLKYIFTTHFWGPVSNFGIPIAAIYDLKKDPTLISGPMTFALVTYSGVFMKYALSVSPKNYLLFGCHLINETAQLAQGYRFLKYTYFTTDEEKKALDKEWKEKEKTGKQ
Assay: paramagnetic relaxation enhancement (PRE) NMR; MTSL-labelled monomer co-refolded with 15N-labelled monomer; 1H-15N BEST-TROSY with and without vitamin C; 25 mM NaAc pH 6.0, 50 mM glutamic acid, 50 mM arginine, 10 mM β-ME, 1 mM EDTA, 1 mM DPC, 2 mM LDAO; 308 K, 850 MHz; both purified
Details: remark: other sources report otherwise

B1: Saccharomyces cerevisiae mitochondrial pyruvate carrier 1 (Mpc1) with C-terminal 8×His-tag, P53157 1-130 (natural protein)
chain: MSQPVQRAAARSFLQKYINKETLKYIFTTHFWGPVSNFGIPIAAIYDLKKDPTLISGPMTFALVTYSGVFMKYALSVSPKNYLLFGCHLINETAQLAQGYRFLKYTYFTTDEEKKALDKEWKEKEKTGKQ
modifications: here or on the partner: MTSL spin label on C87
For B1, the binding was “binds”.
